Results are given in words; binding and its absence hold for the method and conditions named. In cells and extracts the contact can be indirect. Some results given as binding are weak or reduced against the parent protein; the word gives no strength. Sequences can lack the tags named with a protein.

Sequences of proteins named here, by UniProt entry; tags and fusion partners are left off.
UniProt P0C0U1: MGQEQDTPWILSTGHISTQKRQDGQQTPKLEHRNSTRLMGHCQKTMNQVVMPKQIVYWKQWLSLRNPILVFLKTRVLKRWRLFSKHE

The target of the test is PB1-F2 from A/Puerto Rico/8/34(H1N1), myc-tagged (influenza A virus A/Puerto Rico/8/34(H1N1)) (UniProt P0C0U1). Description: co-IP.

B1: Flag tagged IKKβ (enzyme, UniProt O14920 1-756)
chain: MSWSPSLTTQTCGAWEMKERLGTGGFGNVIRWHNQETGEQIAIKQCRQELSPRNRERWCLEIQIMRRLTHPNVVAARDVPEGMQNLAPNDLPLLAMEYCQGGDLRKYLNQFENCCGLREGAILTLLSDIASALRYLHENRIIHRDLKPENIVLQQGEQRLIHKIIDLGYAKELDQGSLCTSFVGTLQYLAPELLEQQKYTVTVDYWSFGTLAFECITGFRPFLPNWQPVQWHSKVRQKSEVDIVVSEDLNGTVKFSSSLPYPNNLNSVLAERLEKWLQLMLMWHPRQRGTDPTYGPNGCFKALDDILNLKLVHILNMVTGTIHTYPVTEDESLQSLKARIQQDTGIPEEDQELLQEAGLALIPDKPATQCISDGKLNEGHTLDMDLVFLFDNSKITYETQISPRPQPESVSCILQEPKRNLAFFQLRKVWGQVWHSIQTLKEDCNRLQQGQRAAMMNLLRNNSCLSKMKNSMASMSQQLKAKLDFFKTSIQIDLEKYSEQTEFGITSDKLLLAWREMEQAVELCGRENEVKLLVERMMALQTDIVDLQRSPMGRKQGGTLDDLEEQARELYRRLREKPRDQRTEGDSQEMVRLLLQAIQSFEKKVRVIYTQLSKTVVCKQKALELLPKVEEVVSLMNEDEKTVVRLQEKRQKELWNLLKIACSKVRGPVSGSPDSMNASRLSQPGQLMSQPSTASNSLPEPAKKSEELVAEAHNLCTLLENAIQDTVREQDQSFTALDWSWLQTEEEEHSCLEQAS
With B1, the binding result is given as “binds”.

For the origin of these results see article PMC3660569.
